# Source: patent US20250340657A1 (CANTARGIA, published 2025)
# The chains behind the UniProt entries cited, without tags or fusion partners. Where a name states a change or a piece, a line headed by the entry shows the natural chain unless it says otherwise. Residues count along the entry.
# UniProt Q9NPH3: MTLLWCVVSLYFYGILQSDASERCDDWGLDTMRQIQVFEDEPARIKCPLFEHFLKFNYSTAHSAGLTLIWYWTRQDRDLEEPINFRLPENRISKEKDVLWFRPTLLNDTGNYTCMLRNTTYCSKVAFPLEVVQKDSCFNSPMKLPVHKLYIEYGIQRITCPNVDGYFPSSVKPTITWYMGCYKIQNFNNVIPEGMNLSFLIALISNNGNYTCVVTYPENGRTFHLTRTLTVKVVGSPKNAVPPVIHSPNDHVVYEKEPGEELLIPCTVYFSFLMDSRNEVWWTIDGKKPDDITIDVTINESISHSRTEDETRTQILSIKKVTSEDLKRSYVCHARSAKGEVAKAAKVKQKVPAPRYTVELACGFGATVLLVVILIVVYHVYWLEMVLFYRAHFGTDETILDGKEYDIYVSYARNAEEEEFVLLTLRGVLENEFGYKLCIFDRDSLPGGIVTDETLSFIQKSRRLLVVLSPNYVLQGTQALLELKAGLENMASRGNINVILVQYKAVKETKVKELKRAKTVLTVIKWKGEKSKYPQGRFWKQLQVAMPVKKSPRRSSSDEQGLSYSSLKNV
# human IL1RAP on cells: residues 21-570 of Q9NPH3
# human IL1RAP (analyte of the Biacore study): residues 21-367 of Q9NPH3
# Where a chain is given by its changes, count along the chain named. Results are given in words; binding and its absence hold for the method and conditions named. Some results given as binding are weak or reduced against the parent protein; the word gives no strength.
# B1: CAN04 (antibody, V domains shown)
# VH: QVQLQQSGPELLKPGASVKISCKASGYAFSSSWMNWVKQRPGKGLEWIGRIYPGDGNTHYSGKFKGKATLTADKSSSIAYMQLSSLTSEDSAVYFCGEGYLDPMDYWGQGTSVTVSS
# VL: DIQMTQTTSSLSASLGDRVTISCSASQGINNYLNWYQQKPDGTVKLLIHYTSGLHAGVPSRFSGSGSGTDYSLTISNLEPEDVATYYCQQYSILPWTFGGGTKLEIKR
# notes: Murine-derived monoclonal IgG; It was PE-conjugated on primary cells and AF488-labelled for confocal microscopy; also called exemplary antibody of the invention
# B2: hCAN04 Variant 6 (antibody, human IgG1, kappa, V domains shown)
# VH: QVQLVQSGAEVKKPGSSVKVSCKASGYAFTSSWMNWVRQAPGQGLEWMGRIYPGDGNTHYAQKFQGRVTLTADKSTSTAYMELSSLRSEDTAVYYCGEGYLDPMDYWGQGTLVTVSS
# VL: DIQMTQSPSSLSASVGDRVTITCQASQGINNYLNWYQQKPGKAPKLLIHYTSGLHAGVPSRFSGSGSGTDYTLTISSLEPEDVATYYCQQYSILPWTFGGGTKVEIKR
# notes: Human IgG1za / kappa, expressed in CHOK1SV cells; also called Var6; humanized variant 6 of CAN04
# B3: hCAN04 Variant 3 (antibody, human IgG1, kappa, V domains shown)
# VH: B2 VH with A28T, Q43K, N57Q
# VL: B2 VL with Q24S, E79Q
# notes: Human IgG1za / kappa, expressed in CHOK1SV cells; also called Var3; humanized variant 3 of CAN04
# B4: hCAN04 Variant 12 (antibody, human IgG1, kappa, V domains shown)
# VH: B2 VH with A28T, Q43K, N57Q, L70I
# VL: B2 VL with Y71F
# notes: Human IgG1za / kappa, expressed in CHOK1SV cells; also called Var 12; humanized variant 12 of CAN04
# B5: hCAN04 Variant 2 (antibody, human IgG1, kappa, V domains shown)
# VH: B2 VH
# VL: B2 VL with Q24S, E79Q
# notes: Human IgG1za / kappa, expressed in CHOK1SV cells; also called Var2; humanized variant 2 of CAN04
# B6: hCAN04 Variant 11 (antibody, human IgG1, kappa, V domains shown)
# VH: B2 VH with A28T, Q43K, N57Q
# VL: B2 VL with Y71F
# notes: Human IgG1za / kappa, expressed in CHOK1SV cells; also called Var11; humanized variant 11 of CAN04
# B7: hCAN04 Variant 1 (antibody, human IgG1, kappa, V domains shown)
# VH: B2 VH with T30S
# VL: B2 VL with Q24S, E79Q
# notes: Human IgG1za / kappa, expressed in CHOK1SV cells; also called Var1; humanized variant 1 of CAN04
# B8: hCAN04 Variant 10 (antibody, human IgG1, kappa, V domains shown)
# VH: B2 VH
# VL: B2 VL with Y71F
# notes: Human IgG1za / kappa, expressed in CHOK1SV cells; also called Var10; humanized variant 10 of CAN04
# B9: hCAN04 Variant 9 (antibody, human IgG1, kappa, V domains shown)
# VH: B2 VH with T30S
# VL: B2 VL with Y71F
# notes: Human IgG1za / kappa, expressed in CHOK1SV cells; also called Var9; humanized variant 9 of CAN04
# B10: hCAN04 Variant 5 (antibody, human IgG1, kappa, V domains shown)
# VH: B2 VH with T30S
# VL: B2 VL
# notes: Human IgG1za / kappa, expressed in CHOK1SV cells; also called Var5; humanized variant 5 of CAN04
# B11: hCAN04 Variant 4 (antibody, human IgG1, kappa, V domains shown)
# VH: B2 VH with A28T, Q43K, N57Q, L70I
# VL: B2 VL with Q24S, E79Q
# notes: Human IgG1za / kappa, expressed in CHOK1SV cells; also called Var4; humanized variant 4 of CAN04
# B12: hCAN04 Variant 8 (antibody, human IgG1, kappa, V domains shown)
# VH: B2 VH with A28T, Q43K, N57Q, L70I
# VL: B2 VL
# notes: Human IgG1za / kappa, expressed in CHOK1SV cells; also called Var8; humanized variant 8 of CAN04
# B13: hCAN04 Variant 7 (antibody, human IgG1, kappa, V domains shown)
# VH: B2 VH with A28T, Q43K, N57Q
# VL: B2 VL
# notes: Human IgG1za / kappa, expressed in CHOK1SV cells; also called Var7; humanized variant 7 of CAN04
# Biological target: human IL1RAP (analyte of the Biacore study) (human) (UniProt Q9NPH3)
# Experiment: SPR (Biacore T200)
row,binding,Binder
1,binds,B1

# Biological target: human IL1RAP on cells (human) (UniProt Q9NPH3)
# Experiment: flow cytometry on IL1RAP-expressing BV173 cells, 1 µg/mL, anti-hIgG-PE
row,binding,Binder
1,binds,B2
2,binds,B3
3,binds,B4
4,binds,B5
5,binds,B6
6,binds,B7
7,binds,B8
8,binds,B9
9,binds,B10
10,binds,B11
11,binds,B12
12,binds,B13

# Biological target: human IL1RAP on cells (human) (UniProt Q9NPH3)
# Experiment: flow cytometry on IL1RAP-expressing BV173 cells, 1 µg/mL
row,binding,Binder
1,binds,B2
2,binds,B5
3,binds,B7
4,binds,B8
5,binds,B9
6,binds,B10

# Biological target: human IL1RAP on cells (human) (UniProt Q9NPH3)
# Experiment: flow cytometry on BV173 cells, 1 µg/mL antibody, secondary anti-hIgG-PE, MFI
row,binding,Binder
1,binds,B2
2,binds,B3
3,binds,B4
4,binds,B5
5,binds,B6
6,binds,B7
7,binds,B8
8,binds,B9
9,binds,B10
10,binds,B11
11,binds,B12
12,binds,B13

# Biological target: human IL1RAP on cells (human) (UniProt Q9NPH3)
# Experiment: flow cytometry on BV173 cells (FIG. 3)
row,binding,Binder
1,binds,B2
2,binds,B3
3,binds,B4
4,binds,B5
5,binds,B6
6,binds,B7
7,binds,B8
8,binds,B9
9,binds,B10
10,binds,B11
11,binds,B12
12,binds,B13
